Measurements from the supplement of paper PMC10626197.
Counter-ions that a name gives are not always drawn. ± gives the standard deviation of the averaged measurements. Some well-known active drugs show little effect in this data set, so a weak value is uncertain.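 Drug pairs were tested on MCF7 breast cancer cells in a dose grid. On every plate, solvent-only DMSO wells served as the untreated reference, and a doxorubicin series served as the total-kill control. No hit threshold applies to the viability readings.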

Legend:
MCF7 [1] = assay: cell viability relative to DMSO control (raw), single agent; higher = more viable cells; details: exposure time 72 h
Experimental: (§1)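 MCF7 cells, 1000 cells/well in 384-well plates, single-agent wells of drug 2 (drug 1 at 0 µM) within 6x6 combination matrices (1:3 serial dilutions), 72 h at 37 °C. Viability read by CellTiter-Glo luminescence, 3 biological replicates. Normalised viability sets 0% at the highest doxorubicin dose and 100% at the 0,0 µM control per combination.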

MCF7 [2] = assay: cell viability relative to DMSO control (raw); higher = more viable cells; details: exposure time 72 h
Experimental: as §1, with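 “treated with 6x6 dose matrices” for “single-agent wells”, “pairs” for “2 (drug 1 at 0 µM) within 6x6 combination matrices”, “dilutions, DMSO as lowest dose) for” for “dilutions),”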

CCCNC(=O)c1cn2ncnc(Nc3cc(C(=O)NC4CC4)ccc3C)c2c1C
cell viability [%], MCF7 [1]
Details | 0.37037 µM | 1.11111 µM | 3.33333 µM | 10 µM | 30 µM
plate partner (at 0 µM): Cabazitaxel | 94.5 ± 9.2 | 96.1 ± 10 | 93.3 ± 4 | 83.6 ± 8.5 | 81.2 ± 10
plate partner (at 0 µM): Erlotinib | 108 ± 6.6 | 109 ± 6.7 | 111 ± 6.7 | 103 ± 9.1 | 91.2 ± 6.8
plate partner (at 0 µM): Mitoxantrone | 92 ± 11 | 88.2 ± 8.6 | 88.1 ± 11 | 83.2 ± 13 | 73.4 ± 9.1
plate partner (at 0 µM): Paclitaxel | 88.7 ± 7.5 | 94.5 ± 9.9 | 91.1 ± 3.4 | 80.4 ± 7.4 | 82.8 ± 17
plate partner (at 0 µM): Vincristine | 99.7 ± 9.4 | 99.8 ± 8.7 | 93.4 ± 14 | 87.4 ± 2.9 | 82.5 ± 4.3

Cc1c(-c2ccc(O)cc2)n(Cc2ccc(OCCN3CCCCCC3)cc2)c2ccc(O)cc12 [Bazedoxifene (acetate)]
cell viability [%], MCF7 [1]
Details | 0.123457 µM | 0.37037 µM | 1.11111 µM | 3.33333 µM | 10 µM
plate partner (at 0 µM): Mitoxantrone | 82.9 ± 8.5 | 80.8 ± 9 | 89 ± 6.7 | 87.5 ± 9 | 6.07 ± 0.29
plate partner (at 0 µM): Vincristine | 103 ± 8.1 | 105 ± 8.6 | 104 ± 4 | 83.4 ± 7.1 | 7.17 ± 0.1

Cn1c(=O)c2nc[nH]c2n(C)c1=O [Theophylline]
MCF7 [1], plate partner (at 0 µM): Imiquimod
Details | cell viability [%]
0.123457 µM | 107 ± 21
0.37037 µM | 109 ± 1.4
1.11111 µM | 107 ± 2.5
3.33333 µM | 100 ± 8.6
10 µM | 99 ± 19

Nc1ccccc1NC(=O)c1ccc(CNC(=O)OCc2cccnc2)cc1 [Entinostat]
MCF7 [1], plate partner (at 0 µM): Abiraterone
Details | cell viability [%]
0.0740741 µM | 98 ± 6
0.222222 µM | 96.3 ± 4.8
0.666667 µM | 87.5 ± 4.3
2 µM | 68.5 ± 0.76
6 µM | 37.5 ± 3.2

C[C@]12C=CC(=O)N[C@@H]1CC[C@@H]1[C@@H]2CC[C@]2(C)[C@@H](C(=O)Nc3cc(C(F)(F)F)ccc3C(F)(F)F)CC[C@@H]12 [Dutasteride]
MCF7 [1], plate partner (at 0 µM): Mitoxantrone
Details | cell viability [%]
0.617284 µM | 97.7 ± 12
1.85185 µM | 99.1 ± 1.6
5.55556 µM | 93.9 ± 3.7
16.6667 µM | 76.6 ± 7
50 µM | 43.3 ± 7.2

COc1ccccc1OCC(O)COC(N)=O (stereo not given) [Methocarbamol]
MCF7 [1], plate partner (at 0 µM): Methotrexate
Details | cell viability [%]
0.0679012 µM | 100 ± 3.9
0.203704 µM | 100 ± 8.1
0.611111 µM | 102 ± 6.3
1.83333 µM | 100.1 ± 0.89
5.5 µM | 102 ± 5

CC(C)C[C@@H](C(=O)N[C@H](C(=O)OC1CCCC1)c1ccccc1)[C@H](O)C(=O)NO [Tosedostat]
cell viability [%], MCF7 [1]
Details | 0.246914 µM | 0.740741 µM | 2.22222 µM | 6.66667 µM | 20 µM
plate partner (at 0 µM): Crizotinib | 90.6 ± 8 | 94 ± 14 | 86.1 ± 2.8 | 81.4 ± 6 | 63.6 ± 4.3
plate partner (at 0 µM): Pazopanib | 74.3 ± 2.4 | 70.3 ± 1.6 | 64.9 ± 3.7 | 63.1 ± 2.5 | 50.8 ± 1.1

CCOC(=O)C(C)(C)Oc1ccc(Cl)cc1 [Clofibrate]
MCF7 [1], plate partner (at 0 µM): Crizotinib
Details | cell viability [%]
0.0308642 µM | 107 ± 7.3
0.0925926 µM | 102 ± 8.4
0.277778 µM | 108 ± 9.3
0.833333 µM | 111 ± 2.9
2.5 µM | 111 ± 10

COc1cc2c(Oc3ccc(NC(=O)C4(C(=O)Nc5ccc(F)cc5)CC4)cc3F)ccnc2cc1OCCCN1CCOCC1 [Foretinib]
cell viability [%], MCF7 [1]
Details | 0.348765 µM | 1.0463 µM | 3.13889 µM | 9.41667 µM | 28.25 µM
plate partner (at 0 µM): Cabazitaxel | 103 ± 14 | 88.4 ± 10 | 59.6 ± 6.5 | 20.5 ± 4.8 | 1.29 ± 0.16
plate partner (at 0: 5-Fluorouracil µM | 83.6 ± 8.6 | 61.7 ± 3.5 | 30.6 ± 5.8 | 4.72 ± 2.2 | 2.47 ± 2

CNC[C@H](O)c1ccc(O)c(O)c1 [Epinephrine HCl]
MCF7 [1], plate partner (at 0 µM): Vandetanib
Details | cell viability [%]
0.0740741 µM | 97.3 ± 7.6
0.222222 µM | 108 ± 4.1
0.666667 µM | 101 ± 6.3
2 µM | 94.8 ± 6.9
6 µM | 69.1 ± 1.2

CNS(=O)(=O)Cc1ccc2[nH]cc(CCN(C)C)c2c1 [Sumatriptan (succinate)]
MCF7 [1], plate partner (at 0 µM): Sorafenib
Details | cell viability [%]
0.0740741 µM | 87.3 ± 6.4
0.222222 µM | 97.5 ± 12
0.666667 µM | 92.2 ± 3.3
2 µM | 92.7 ± 13
6 µM | 94 ± 13

O=C(NOC[C@H](O)CO)c1ccc(F)c(F)c1Nc1ccc(I)cc1F
MCF7 [1], plate partner (at 0 µM): Vismodegib
Details | cell viability [%]
0.0246914 µM | 91.1 ± 8.2
0.0740741 µM | 87.6 ± 4.7
0.222222 µM | 91.6 ± 4.3
0.666667 µM | 85.3 ± 6.1
2 µM | 76.3 ± 5.3

C=CC(=O)N1CCC(Oc2cc3c(Nc4ccc(Cl)c(Cl)c4F)ncnc3cc2OC)CC1 [Poziotinib]
MCF7 [1], plate partner (at 0 µM): Mitoxantrone
Details | cell viability [%]
0.246914 µM | 91.1 ± 4.1
0.740741 µM | 89.8 ± 9.8
2.22222 µM | 70.3 ± 5.6
6.66667 µM | 71.6 ± 9.2
20 µM | 80.5 ± 3.2

CC/C(=C(\c1ccccc1)c1ccc(OCCN(C)C)cc1)c1ccccc1 [Tamoxifen] + COc1ccc2cc([C@H](C)C(=O)O)ccc2c1 [Naproxen]
cell viability [%], MCF7 [2]
Details | drug 2 concentration 0 µM | drug 2 concentration 0.0925926 µM | drug 2 concentration 0.277778 µM | drug 2 concentration 0.833333 µM | drug 2 concentration 2.5 µM | drug 2 concentration 7.5 µM
drug 1 concentration 0.123457 µM | 101 ± 8.5 | 94.2 ± 7.3 | 96.2 ± 9.8 | 103 ± 5 | 96.8 ± 14 | 105 ± 5.1
drug 1 concentration 0.37037 µM | 103 ± 8.2 | 109 ± 13 | 118 ± 20 | 121 ± 13 | 115 ± 9.3 | 112 ± 8.1
drug 1 concentration 1.11111 µM | 98.7 ± 3.8 | 108 ± 12 | 104 ± 8.9 | 107 ± 4.1 | 110 ± 8.3 | 114 ± 10
drug 1 concentration 3.33333 µM | 87.7 ± 2.8 | 94.4 ± 1.7 | 90.4 ± 3.8 | 85.3 ± 3.9 | 95.4 ± 5.3 | 84.3 ± 5.2
drug 1 concentration 10 µM | 33.5 ± 11 | 33.8 ± 8 | 32.3 ± 0.92 | 31.1 ± 4.9 | 27.8 ± 10 | 24.7 ± 6
